# Source: article PMC12219335
# The chains behind the UniProt entries cited, without tags or fusion partners. Residues count along the entry.
# UniProt Q9NZQ7, residues 19-290: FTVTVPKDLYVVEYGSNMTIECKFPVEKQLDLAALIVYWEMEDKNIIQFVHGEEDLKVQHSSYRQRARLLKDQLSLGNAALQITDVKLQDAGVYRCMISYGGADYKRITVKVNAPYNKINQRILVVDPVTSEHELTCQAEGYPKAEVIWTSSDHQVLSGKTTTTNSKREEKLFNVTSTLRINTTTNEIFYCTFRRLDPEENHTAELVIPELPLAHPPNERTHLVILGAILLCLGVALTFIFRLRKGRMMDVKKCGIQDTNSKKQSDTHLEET
# These are yes or no findings as the source states them, for the method shown. In cells and extracts the contact can be indirect. These calls come from enrichment with a bait or labelling near it, and not all partners need be listed.
# B1: calcineurin B homologous protein 1 (CHP1) (protein, UniProt Q99653 1-195)
# chain: MGSRASTLLRDEELEEIKKETGFSHSQITRLYSRFTSLDKGENGTLSREDFQRIPELAINPLGDRIINAFFPEGEDQVNFRGFMRTLAHFRPIEDNEKSKDVNGPEPLNSRSNKLHFAFRLYDLDKDEKISRDELLQVLRMMVGVNISDEQLGSIADRTIQEADQDGDSAISFTEFVKVLEKVDVEQKMSIRFLH
# modifications: N-terminal myristoylation (by NMT1; labelled by YnMyr)
# Biological target: programmed death ligand 1 (PD-L1) (human (endogenous in SCC9)) (UniProt Q9NZQ7)
# Experiment: affinity purification with mass spectrometry; anti-PD-L1 antibody precipitation from SCC9 cells, control and NMT1 knock-down; proteins whose binding to PD-L1 changed were screened by mass spectrometry and crossed with the YnMyr myristoylation proteomics
binder,measurement,value
B1,binding,binds
